The list shows only some results of the screen, not a fair sample: it gathers tests that were run many times, whatever their T/C, doses with no T/C, and many T/C values between a quarter and a half above the control. Further doses and runs are listed elsewhere. T/C is the treated group as % of the vehicle group. Some entries give survivors of the animals treated and no T/C: the source files T/C as zero there, which appears to mark a toxic dose or a test without result, not a measured value. Some doses without a T/C left all or most animals alive at the check, yet need not have been tolerated: survival well below the control is almost never listed, so the zero probably covers shortened survival too. Survivors were counted at the toxicity check, usually on the fifth day, unless a day is given; later deaths do not show. Schedule codes are those of the source, read here as Q, the interval in days (D) or hours (H), X, the number of doses. Some doses were run more than once; the results are listed from low to high. For survival time, this PubChem deposit counts one and a half times the control or more as active, and values a quarter to a half above the control carry no call in these data; other NCI protocols may use other cut-offs.

From PubChem BioAssay AID330 (DTP/NCI, 2004) come the findings set out here.

The subject of the assay is P388 leukemia ip, CD2F1 mice, survival T/C. Put plainly: NCI In Vivo Anticancer Drug Screen. Data for tumor model P388 Leukemia (intraperitoneal) in CD2F1 (CDF1) mice. Conditions: T/C endpoint: median survival time, higher T/C = longer survival.
Where [1] appears, read: dose: 3.75 mg/kg/injection, schedule: Q01DX009 (ip), vehicle: saline.
Where [2] appears, read: dose: 7.5 mg/kg/injection, schedule: Q01DX009 (ip), vehicle: saline.
The mark [3] stands for this setting: dose: 15.0 mg/kg/injection, schedule: Q01DX009 (ip), vehicle: saline.
The mark [4] stands for this setting: dose: 50.0 mg/kg/injection, schedule: Q01DX009 (ip), vehicle: saline.
Setting [5] is: dose: 100.0 mg/kg/injection, schedule: Q01DX009 (ip), vehicle: saline.
Where [6] appears, read: dose: 200.0 mg/kg/injection, schedule: Q01DX009 (ip), vehicle: saline.
Setting [7] is: dose: 200.0 mg/kg/injection, schedule: Q01DX005 (ip), vehicle: saline with Tween-80.
Setting [8] is: dose: 200.0 mg/kg/injection, schedule: Q01DX009 (ip), vehicle: Klucel (hydroxypropylcellulose) (HPC).
Setting [9] is: dose: 240.0 mg/kg/injection, schedule: Q01DX005 (ip), vehicle: saline with Tween-80.

`COc1ccc(C=C2C(=O)C=CC2=O)cc1`: the survivor count by setting is: (dose: 25.0 mg/kg/injection, schedule: Q04DX002 (ip), vehicle: saline with Tween-80) 0 of 6; (dose: 50.0 mg/kg/injection, schedule: Q04DX002 (ip), vehicle: saline with Tween-80) 1 of 6; (dose: 100.0 mg/kg/injection, schedule: Q04DX002 (ip), vehicle: saline with Tween-80) 0 of 6.
As for `O=P(N1CCCCCC1)(N1CC1)N1CC1`, the survivor count runs as follows: (dose: 1.87 mg/kg/injection, schedule: Q01DX009 (ip), vehicle: saline) 6 of 6; under setting [1], 6 of 6; under setting [2], 6 of 6; under setting [3], 6 of 6; (dose: 30.0 mg/kg/injection, schedule: Q01DX009 (ip), vehicle: saline) 6 of 6; (dose: 50.0 mg/kg/injection, schedule: Q04DX003 (ip), vehicle: saline) 6 of 6. Moreover, the survivor count (dose: 60.0 mg/kg/injection, schedule: Q04DX003 (ip), vehicle: saline) was 5 of 6. Also, the T/C reads like this: (dose: 1.88 mg/kg/injection, schedule: Q04DX003 (ip), vehicle: saline) 134 % of control; under setting [1], 120, 125, 145 % of control; under setting [2], 157, 169, 175 % of control; (dose: 7.5 mg/kg/injection, schedule: Q04DX003 (ip), vehicle: saline) 133 % of control; under setting [3], 120, 209, 216 % of control.
Regarding `Brc1ccc[n+](CCc2ccccc2)c1`, the survivor count (dose: 50.0 mg/kg/injection, schedule: Q01DX009 (ip), vehicle: saline with Tween-80) was 2 of 6.
With `NC(CCl)=NCC12CC3CC(CC(C3)C1)C2`, the T/C runs as follows: (dose: 12.5 mg/kg/injection, schedule: Q01DX009 (ip), vehicle: saline) 126 % of control; (dose: 25.0 mg/kg/injection, schedule: Q01DX009 (ip), vehicle: Klucel (hydroxypropylcellulose) (HPC)) 128 % of control; (dose: 25.0 mg/kg/injection, schedule: Q01DX009 (ip), vehicle: saline) 139 % of control. In addition, the survivor count was 3 of 6 (dose: 50.0 mg/kg/injection, schedule: Q01DX009 (ip), vehicle: Klucel (hydroxypropylcellulose) (HPC)); 3 of 6 under setting [4]; 0 of 6 under setting [5]; 0 of 6 under setting [6].
Consider `O=C1c2ccccc2C(=O)c2c(I)cccc21`, for which the survivor count under setting [7] was 5 of 5.
Take `CCN1C(=O)C=CC1=O`: the survivor count runs as follows: (dose: 12.5 mg/kg/injection, schedule: Q04DX003 (ip), vehicle: saline with Tween-80) 2 of 6 and 5 of 6; (dose: 25.0 mg/kg/injection, schedule: Q04DX003 (ip), vehicle: saline with Tween-80) 0 of 6.
`CCOC1=C(N2CC2)C(=O)C(OCC)=C(N2CC2)C1=O`: where the note is “dose: 0.63 mg/kg/injection, schedule: Q01DX009 (ip), vehicle: saline”, the T/C is 149 % of control.
Take `O=S(=O)(CCNCCCCC1CCCCC1)SCCNCCCCC1CCCCC1`: the survivor count is given as 1 of 5 (dose: 50.0 mg/kg/injection, schedule: Q01DX005 (ip), vehicle: Klucel (hydroxypropylcellulose) (HPC)); 5 of 5 (dose: 100.0 mg/kg/injection, schedule: Q01DX005 (ip), vehicle: Klucel (hydroxypropylcellulose) (HPC)); 5 of 5 (dose: 200.0 mg/kg/injection, schedule: Q01DX005 (ip), vehicle: Klucel (hydroxypropylcellulose) (HPC)).
Turning to `O=C(c1ccccc1)C(CN1CCOCC1)CN1CCOCC1`, the survivor count under setting [6] was 0 of 6.
For the molecule `COC(=O)C1c2ccccc2CC(=O)N1NC(C)=O` (configuration not stated), the survivor count under setting [8] was 1 of 6.
`O=C(Nc1ccccc1O)C1C(=O)C(=O)N(c2ccccc2O)C1=O` (configuration not stated): the T/C under setting [8] is 125 and 128 % of control. The survivor count (dose: 400.0 mg/kg/injection, schedule: Q01DX009 (ip), vehicle: Klucel (hydroxypropylcellulose) (HPC)) is 2 of 6 and 3 of 6.
For `C=C(CCCC)N1CCN=N1`, the survivor count (dose: 50.0 mg/kg/injection, schedule: Q01DX005 (ip), vehicle: saline with Tween-80) was 0 of 5; the survivor count (dose: 100.0 mg/kg/injection, schedule: Q01DX005 (ip), vehicle: saline with Tween-80) is 0 of 5; the survivor count under setting [7] is listed as 0 of 5.
With `C=C(C)C12CC(C)C34OC5(OC1C3C1OC1(CO)C(O)C1(O)C(OC(=O)c3ccccc3)C(C)C(C(C)CCCCCCC5O)C14)O2` (configuration not stated), the survivor count reads like this: (dose: 0.03 mg/kg/injection, schedule: Q01DX009 (ip), vehicle: distilled water + alcohol) 4 of 6; (dose: 0.06 mg/kg/injection, schedule: Q01DX009 (ip), vehicle: distilled water + alcohol) 0 of 6; (dose: 0.12 mg/kg/injection, schedule: Q01DX009 (ip), vehicle: distilled water + alcohol) 0 of 6; (dose: 0.25 mg/kg/injection, schedule: Q01DX009 (ip), vehicle: distilled water + alcohol) 0 of 6; (dose: 0.5 mg/kg/injection, schedule: Q01DX009 (ip), vehicle: distilled water + alcohol) 0 of 6; (dose: 1.0 mg/kg/injection, schedule: Q01DX009 (ip), vehicle: distilled water + alcohol) 0 of 6. For the setting “dose: 15.0 micrograms/kg/injection, schedule: Q01DX009 (ip), vehicle: distilled water + alcohol”, the T/C is 125 % of control.
Turning to `O=C(Nc1ccc(Cl)c(Cl)c1)Sc1ccc(O)cc1`, the survivor count (dose: 200.0 mg/kg/injection, schedule: Q01DX009 (ip), vehicle: saline with Tween-80) is on record as 6 of 6.
As to `O=C(Nc1cc(Cl)c(Cl)cc1Cl)OCc1ccc2c(c1)OCO2`, the survivor count (dose: 120.0 mg/kg/injection, schedule: Q01DX005 (ip), vehicle: saline with Tween-80) is on record as 6 of 6 and the survivor count under setting [9] is given as 6 of 6.
Consider `C=CCNC(=S)N/N=C(\CCC)c1ccccn1`, for which the survivor count under setting [7] is 0 of 6.
`CC1(C)CC(OP2(=O)NCCCO2)CC(C)(C)N1O` (configuration not stated): the T/C (dose: 13.75 mg/kg/injection, schedule: Q01DX001 (ip), vehicle: saline) was 133 % of control.
On to `C=CCOC(=O)OCCCO`, for which the survivor count (dose: 240.0 mg/kg/injection, schedule: Q01DX005 (ip), vehicle: saline) was 2 of 6.
Consider `O=C1c2ccccc2C(=O)N1CC[P+](Cc1ccccc1)(Cc1ccccc1)Cc1ccccc1`, for which the survivor count (dose: 200.0 mg/kg/injection, schedule: Q01DX009 (ip), vehicle: other) was 3 of 6.
For the molecule `COc1cccc(C(=O)C(CN(C)C)CN(C)C)c1`, the survivor count was 0 of 6 under setting [4], 0 of 6 under setting [5] and 0 of 6 under setting [6].
For the molecule `Cc1nc2sccn2c1/C=N/O`, the survivor count is, setting by setting: (dose: 100.0 mg/kg/injection, schedule: Q04DX002 (ip), vehicle: Klucel (hydroxypropylcellulose) (HPC)) 0 of 6; (dose: 200.0 mg/kg/injection, schedule: Q04DX002 (ip), vehicle: Klucel (hydroxypropylcellulose) (HPC)) 0 of 6; (dose: 400.0 mg/kg/injection, schedule: Q04DX002 (ip), vehicle: Klucel (hydroxypropylcellulose) (HPC)) 0 of 6.
Regarding `CCOC1CC2C(=O)C(CC)=C(OC)CC2(CC)CO1` (configuration not stated), the survivor count under setting [9] is given as 1 of 6.
As for `O=C1CC(=O)N(CCc2ccncc2)C(=O)N1CCc1ccncc1`, the survivor count (dose: 200.0 mg/kg/injection, schedule: Q01DX005 (ip), vehicle: saline) was 3 of 5.
Regarding `O=c1oc(-c2cccc([N+](=O)[O-])c2)ns1`, the survivor count reads like this: (dose: 75.0 mg/kg/injection, schedule: Q01DX009 (ip), vehicle: Klucel (hydroxypropylcellulose) (HPC)) 1 of 6; (dose: 150.0 mg/kg/injection, schedule: Q01DX009 (ip), vehicle: Klucel (hydroxypropylcellulose) (HPC)) 0 of 6; (dose: 300.0 mg/kg/injection, schedule: Q01DX009 (ip), vehicle: Klucel (hydroxypropylcellulose) (HPC)) 0 of 6.
